Data published in the supplement of paper PMC10849652.
This is one part of the list.

Protein sequences, listed by entry. Tags and fused reporters are not part of them. Lines headed by an entry give the natural chain unless they say otherwise; changes in a name come on top.
UniProt Q5T160: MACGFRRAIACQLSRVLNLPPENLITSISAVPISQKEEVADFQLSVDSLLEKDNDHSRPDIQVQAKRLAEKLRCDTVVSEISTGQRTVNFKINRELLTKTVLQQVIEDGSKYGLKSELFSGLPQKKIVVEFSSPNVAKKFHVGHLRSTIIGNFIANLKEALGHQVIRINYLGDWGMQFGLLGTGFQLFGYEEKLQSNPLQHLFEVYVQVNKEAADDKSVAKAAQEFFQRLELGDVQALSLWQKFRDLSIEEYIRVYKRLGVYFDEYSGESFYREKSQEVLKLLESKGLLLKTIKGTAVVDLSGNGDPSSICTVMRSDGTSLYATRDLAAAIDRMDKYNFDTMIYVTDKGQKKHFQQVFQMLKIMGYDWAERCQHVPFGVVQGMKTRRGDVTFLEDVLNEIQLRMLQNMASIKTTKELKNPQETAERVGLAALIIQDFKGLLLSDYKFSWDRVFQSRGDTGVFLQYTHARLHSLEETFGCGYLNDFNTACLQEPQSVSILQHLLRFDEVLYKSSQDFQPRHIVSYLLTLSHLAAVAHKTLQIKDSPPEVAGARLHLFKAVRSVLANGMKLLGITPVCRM
UniProt P51606: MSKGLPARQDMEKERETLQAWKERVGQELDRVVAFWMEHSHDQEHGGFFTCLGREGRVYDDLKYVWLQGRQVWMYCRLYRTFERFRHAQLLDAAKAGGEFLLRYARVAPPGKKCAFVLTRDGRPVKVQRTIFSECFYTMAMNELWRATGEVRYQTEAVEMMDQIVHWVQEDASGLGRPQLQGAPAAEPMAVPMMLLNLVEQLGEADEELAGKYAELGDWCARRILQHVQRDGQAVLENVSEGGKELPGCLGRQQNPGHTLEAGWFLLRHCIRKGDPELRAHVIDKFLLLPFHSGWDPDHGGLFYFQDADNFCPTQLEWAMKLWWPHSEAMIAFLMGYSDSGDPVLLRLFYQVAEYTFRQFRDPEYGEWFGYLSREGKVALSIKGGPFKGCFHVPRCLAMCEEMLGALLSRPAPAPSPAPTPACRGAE
UniProt Q5T8P6: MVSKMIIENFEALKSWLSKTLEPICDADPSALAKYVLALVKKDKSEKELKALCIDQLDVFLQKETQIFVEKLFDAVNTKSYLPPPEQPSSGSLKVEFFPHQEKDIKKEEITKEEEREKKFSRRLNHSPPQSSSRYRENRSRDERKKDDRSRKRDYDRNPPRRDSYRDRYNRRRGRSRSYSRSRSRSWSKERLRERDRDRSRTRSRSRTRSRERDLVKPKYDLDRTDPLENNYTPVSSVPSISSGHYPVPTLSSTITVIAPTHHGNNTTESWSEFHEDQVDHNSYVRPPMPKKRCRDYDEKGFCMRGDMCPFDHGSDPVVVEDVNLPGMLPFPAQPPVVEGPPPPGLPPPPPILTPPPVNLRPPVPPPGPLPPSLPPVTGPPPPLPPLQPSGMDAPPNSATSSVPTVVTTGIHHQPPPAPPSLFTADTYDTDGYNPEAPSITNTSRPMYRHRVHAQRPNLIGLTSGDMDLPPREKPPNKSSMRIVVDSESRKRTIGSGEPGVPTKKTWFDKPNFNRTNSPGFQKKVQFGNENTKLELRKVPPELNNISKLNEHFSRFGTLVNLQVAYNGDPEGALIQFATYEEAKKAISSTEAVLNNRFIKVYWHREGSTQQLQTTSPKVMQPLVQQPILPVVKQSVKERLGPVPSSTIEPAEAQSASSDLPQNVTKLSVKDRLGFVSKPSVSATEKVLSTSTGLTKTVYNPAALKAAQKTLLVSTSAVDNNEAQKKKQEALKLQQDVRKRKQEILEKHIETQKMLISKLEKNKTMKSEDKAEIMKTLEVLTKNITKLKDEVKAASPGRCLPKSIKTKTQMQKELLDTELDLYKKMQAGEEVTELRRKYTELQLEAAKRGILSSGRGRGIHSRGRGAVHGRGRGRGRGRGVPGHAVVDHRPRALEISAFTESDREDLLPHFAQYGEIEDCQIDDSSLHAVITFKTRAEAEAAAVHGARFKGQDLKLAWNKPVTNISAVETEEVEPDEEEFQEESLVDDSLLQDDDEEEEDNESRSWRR
UniProt P98179: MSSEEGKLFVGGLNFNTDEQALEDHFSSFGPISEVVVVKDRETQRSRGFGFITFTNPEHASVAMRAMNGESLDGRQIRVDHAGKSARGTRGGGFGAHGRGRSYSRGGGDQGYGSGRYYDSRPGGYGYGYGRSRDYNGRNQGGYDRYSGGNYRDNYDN
UniProt Q14644: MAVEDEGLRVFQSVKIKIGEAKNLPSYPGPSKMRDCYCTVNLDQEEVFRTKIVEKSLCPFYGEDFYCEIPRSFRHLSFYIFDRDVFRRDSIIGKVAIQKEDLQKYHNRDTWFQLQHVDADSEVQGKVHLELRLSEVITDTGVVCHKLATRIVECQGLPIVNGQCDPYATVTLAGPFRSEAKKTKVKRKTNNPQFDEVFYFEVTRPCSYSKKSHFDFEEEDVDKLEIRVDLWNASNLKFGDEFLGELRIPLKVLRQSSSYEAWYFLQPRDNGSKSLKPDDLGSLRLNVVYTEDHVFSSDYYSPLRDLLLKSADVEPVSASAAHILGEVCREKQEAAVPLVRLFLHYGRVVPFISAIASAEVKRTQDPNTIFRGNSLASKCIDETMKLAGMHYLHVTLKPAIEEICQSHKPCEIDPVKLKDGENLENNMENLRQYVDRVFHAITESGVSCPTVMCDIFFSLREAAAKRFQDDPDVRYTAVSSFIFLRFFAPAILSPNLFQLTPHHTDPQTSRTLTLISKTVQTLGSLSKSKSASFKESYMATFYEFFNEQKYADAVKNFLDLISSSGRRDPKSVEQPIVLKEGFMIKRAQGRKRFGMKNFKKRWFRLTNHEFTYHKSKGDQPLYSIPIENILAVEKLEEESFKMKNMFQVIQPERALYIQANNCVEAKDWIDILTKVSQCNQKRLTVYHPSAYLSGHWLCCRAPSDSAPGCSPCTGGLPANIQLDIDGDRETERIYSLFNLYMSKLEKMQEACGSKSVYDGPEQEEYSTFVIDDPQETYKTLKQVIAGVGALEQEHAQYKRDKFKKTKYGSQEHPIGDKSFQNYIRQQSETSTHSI
UniProt P42696: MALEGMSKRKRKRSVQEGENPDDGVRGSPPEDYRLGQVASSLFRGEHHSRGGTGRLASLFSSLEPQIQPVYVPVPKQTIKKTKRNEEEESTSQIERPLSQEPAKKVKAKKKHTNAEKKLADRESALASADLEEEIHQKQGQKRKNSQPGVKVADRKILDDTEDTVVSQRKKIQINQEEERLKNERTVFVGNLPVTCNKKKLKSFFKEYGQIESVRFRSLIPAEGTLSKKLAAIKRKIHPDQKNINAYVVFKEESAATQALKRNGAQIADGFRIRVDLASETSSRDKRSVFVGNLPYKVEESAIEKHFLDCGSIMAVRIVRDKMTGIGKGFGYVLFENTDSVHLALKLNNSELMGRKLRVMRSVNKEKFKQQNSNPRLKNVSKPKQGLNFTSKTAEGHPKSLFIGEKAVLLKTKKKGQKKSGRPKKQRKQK
UniProt Q09028, whole entry, looked up: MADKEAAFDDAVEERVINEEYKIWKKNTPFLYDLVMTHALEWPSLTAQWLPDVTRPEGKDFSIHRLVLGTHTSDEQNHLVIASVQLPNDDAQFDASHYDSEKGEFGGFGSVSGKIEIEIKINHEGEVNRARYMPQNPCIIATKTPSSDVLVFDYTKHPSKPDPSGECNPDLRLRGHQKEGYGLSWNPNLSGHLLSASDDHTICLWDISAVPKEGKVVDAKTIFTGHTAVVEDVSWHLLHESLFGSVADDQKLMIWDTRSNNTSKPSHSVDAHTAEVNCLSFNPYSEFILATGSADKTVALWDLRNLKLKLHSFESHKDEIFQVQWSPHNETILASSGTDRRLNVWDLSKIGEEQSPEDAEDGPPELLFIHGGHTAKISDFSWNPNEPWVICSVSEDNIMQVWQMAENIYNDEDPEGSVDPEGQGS
UniProt Q96EV2: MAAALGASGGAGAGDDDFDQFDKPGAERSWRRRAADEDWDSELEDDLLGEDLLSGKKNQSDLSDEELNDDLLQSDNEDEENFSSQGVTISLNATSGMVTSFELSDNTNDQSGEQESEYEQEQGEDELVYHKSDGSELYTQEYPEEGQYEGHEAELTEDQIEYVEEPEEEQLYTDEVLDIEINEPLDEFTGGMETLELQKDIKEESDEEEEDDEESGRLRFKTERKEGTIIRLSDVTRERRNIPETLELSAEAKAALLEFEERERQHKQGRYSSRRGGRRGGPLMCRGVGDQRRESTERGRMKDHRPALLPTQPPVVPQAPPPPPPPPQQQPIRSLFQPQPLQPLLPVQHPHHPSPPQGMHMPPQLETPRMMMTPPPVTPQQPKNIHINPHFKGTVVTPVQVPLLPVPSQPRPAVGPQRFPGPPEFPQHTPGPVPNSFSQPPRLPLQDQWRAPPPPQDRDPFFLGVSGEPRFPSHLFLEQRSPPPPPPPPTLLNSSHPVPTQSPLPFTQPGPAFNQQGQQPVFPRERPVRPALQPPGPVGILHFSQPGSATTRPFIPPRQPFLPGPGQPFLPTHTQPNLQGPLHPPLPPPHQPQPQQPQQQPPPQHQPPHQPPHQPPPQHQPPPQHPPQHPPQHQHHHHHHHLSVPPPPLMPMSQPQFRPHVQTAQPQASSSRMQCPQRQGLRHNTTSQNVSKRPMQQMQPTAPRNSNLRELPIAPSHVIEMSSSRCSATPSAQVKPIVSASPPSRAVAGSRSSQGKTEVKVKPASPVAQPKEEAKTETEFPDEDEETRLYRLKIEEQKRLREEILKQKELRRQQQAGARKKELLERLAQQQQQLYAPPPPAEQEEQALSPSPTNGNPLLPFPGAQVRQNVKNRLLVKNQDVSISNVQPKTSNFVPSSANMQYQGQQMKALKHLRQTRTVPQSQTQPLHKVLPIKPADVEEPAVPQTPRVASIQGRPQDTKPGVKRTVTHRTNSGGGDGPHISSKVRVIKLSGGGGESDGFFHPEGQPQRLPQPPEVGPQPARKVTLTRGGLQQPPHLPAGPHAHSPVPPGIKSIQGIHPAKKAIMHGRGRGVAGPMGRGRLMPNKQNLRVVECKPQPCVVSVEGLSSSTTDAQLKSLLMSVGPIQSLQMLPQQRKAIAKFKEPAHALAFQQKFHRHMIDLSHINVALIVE
UniProt Q9UBZ9: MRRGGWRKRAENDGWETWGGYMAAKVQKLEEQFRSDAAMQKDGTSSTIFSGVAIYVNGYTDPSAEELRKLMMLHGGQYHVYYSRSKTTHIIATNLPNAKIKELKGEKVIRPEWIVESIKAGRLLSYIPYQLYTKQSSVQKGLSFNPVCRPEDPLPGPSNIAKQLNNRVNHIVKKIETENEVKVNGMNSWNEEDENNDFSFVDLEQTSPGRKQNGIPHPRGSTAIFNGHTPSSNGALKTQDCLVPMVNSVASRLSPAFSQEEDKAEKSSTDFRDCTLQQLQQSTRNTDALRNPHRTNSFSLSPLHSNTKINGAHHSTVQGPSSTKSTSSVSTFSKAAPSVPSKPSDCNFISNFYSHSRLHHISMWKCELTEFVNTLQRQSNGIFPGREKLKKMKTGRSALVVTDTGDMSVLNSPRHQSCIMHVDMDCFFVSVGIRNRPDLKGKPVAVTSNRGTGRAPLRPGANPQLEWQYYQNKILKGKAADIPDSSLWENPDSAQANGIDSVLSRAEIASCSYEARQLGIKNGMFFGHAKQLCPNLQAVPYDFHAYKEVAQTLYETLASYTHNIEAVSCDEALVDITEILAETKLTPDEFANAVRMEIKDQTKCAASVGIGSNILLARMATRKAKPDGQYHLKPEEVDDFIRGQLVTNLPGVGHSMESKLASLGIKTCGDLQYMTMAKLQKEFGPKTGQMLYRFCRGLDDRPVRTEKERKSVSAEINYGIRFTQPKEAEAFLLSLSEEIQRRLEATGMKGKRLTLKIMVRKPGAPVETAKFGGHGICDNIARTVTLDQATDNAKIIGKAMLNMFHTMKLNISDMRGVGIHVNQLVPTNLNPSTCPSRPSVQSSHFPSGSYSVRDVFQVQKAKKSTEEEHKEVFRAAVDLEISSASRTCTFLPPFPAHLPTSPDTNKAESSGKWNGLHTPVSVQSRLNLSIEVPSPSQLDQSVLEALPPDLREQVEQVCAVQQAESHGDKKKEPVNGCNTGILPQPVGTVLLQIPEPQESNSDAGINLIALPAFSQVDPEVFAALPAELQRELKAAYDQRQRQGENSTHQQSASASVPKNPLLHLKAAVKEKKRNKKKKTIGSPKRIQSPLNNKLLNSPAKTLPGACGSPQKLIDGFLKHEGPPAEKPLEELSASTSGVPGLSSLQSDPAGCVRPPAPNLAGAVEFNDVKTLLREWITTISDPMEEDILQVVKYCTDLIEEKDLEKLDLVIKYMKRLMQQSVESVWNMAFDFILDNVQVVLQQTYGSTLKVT
UniProt Q96PM5: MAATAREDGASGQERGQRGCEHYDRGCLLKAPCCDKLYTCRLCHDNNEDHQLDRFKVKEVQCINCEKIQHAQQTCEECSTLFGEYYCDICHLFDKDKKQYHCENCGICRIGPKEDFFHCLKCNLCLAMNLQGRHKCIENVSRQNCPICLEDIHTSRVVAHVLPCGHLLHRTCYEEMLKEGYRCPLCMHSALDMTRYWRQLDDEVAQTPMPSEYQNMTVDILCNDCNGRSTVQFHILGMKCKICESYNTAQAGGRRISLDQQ

What was measured:
Assay in all cases: log2 fold change, soluble protein after heating vs DMSO (PISA); higher = thermal stabilisation; K562 lysate, 10 uM; active = over 0.2 and 3.5 SD of the protein, either way, in both replicates (recomputed)
alvocidib = compound: CN1CC[C@H](c2c(O)cc(O)c3c(=O)cc(-c4ccccc4Cl)oc23)[C@H](O)C1 [alvocidib]
In short: (§1)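 Dounce homogenisation of K562 pellets in PBS pH 7.4 with 1 mM MgCl2 produced a crude extract, used at 1 mg/mL protein. Exposure to 10 μM compound lasted 30 min, and aliquots were then heated for 3 min across 48°C-58°C, pooled and brought to 0.5% NP-40 at 4°C. The supernatant after 21,000xg for 90 min was quantified by TMTpro 16plex LC-MS/MS with channel sums equalised. Duplicate values are given as log-two fold change in thermal stability relative to solvent controls.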

Tubastatin A = compound: CN1CCc2c(c3ccccc3n2Cc2ccc(C(=O)NO)cc2)C1 [Tubastatin A]
In short: as §1

[1] = compound: CNC(=O)C1=CC=CC=C1NC2=NC(=NC=C2Cl)NC3=C(C=C(C=C3)N4CCOCC4)OC
In short: as §1

defactinib = compound: CNC(=O)c1ccc(Nc2ncc(C(F)(F)F)c(NCc3nccnc3N(C)S(C)(=O)=O)n2)cc1 [defactinib]
In short: as §1

[2] = compound: CNc1nc(-c2ccc3c(N)n[nH]c3c2)cc(N2C[C@@H](C(=O)NC3CCCCC3)CC[C@H]2C)n1
In short: as §1

encorafenib = compound: COC(=O)N[C@@H](C)CNc1nccc(-c2cn(C(C)C)nc2-c2cc(Cl)cc(NS(C)(=O)=O)c2F)n1 [encorafenib]
In short: as §1

[3] = compound: COC(=O)[C@H](CCSC)NC(=O)C1=C(C=C(C=C1)NC[C@H](CS)N)C2=CC=CC=C2
In short: as §1

alisertib = compound: COc1cc(Nc2ncc3c(n2)-c2ccc(Cl)cc2C(c2c(F)cccc2OC)=NC3)ccc1C(=O)O [alisertib]
In short: as §1

[4] = compound: COc1cc2nc(-c3cc(F)ccc3O)nc(N[C@@H]3CNC[C@H]3C(C)(C)O)c2cc1OC
In short: as §1

gefitinib = compound: COc1cc2ncnc(Nc3ccc(F)c(Cl)c3)c2cc1OCCCN1CCOCC1 [gefitinib]
In short: as §1

lapatinib = compound: CS(=O)(=O)CCNCc1ccc(-c2ccc3ncnc(Nc4ccc(OCc5cccc(F)c5)c(Cl)c4)c3c2)o1 [lapatinib]
In short: as §1

pictilisib = compound: CS(=O)(=O)N1CCN(Cc2cc3nc(-c4cccc5[nH]ncc45)nc(N4CCOCC4)c3s2)CC1 [pictilisib]
In short: as §1

crizotinib = compound: C[C@@H](Oc1cc(-c2cnn(C3CCNCC3)c2)cnc1N)c1c(Cl)ccc(F)c1Cl [crizotinib]
In short: as §1

[5] = compound: C[C@H](C1=CC=C(C=C1)C(=O)NC2=C3C=CNC3=NC=C2)N
In short: as §1

duvelisib = compound: C[C@H](Nc1ncnc2nc[nH]c12)c1cc2cccc(Cl)c2c(=O)n1-c1ccccc1 [duvelisib]
In short: as §1

gandotinib = compound: Cc1cc(Nc2cc(CN3CCOCC3)c3nc(C)c(Cc4ccc(Cl)cc4F)n3n2)n[nH]1 [gandotinib]
In short: as §1

tozasertib = compound: Cc1cc(Nc2cc(N3CCN(C)CC3)nc(Sc3ccc(NC(=O)C4CC4)cc3)n2)n[nH]1 [tozasertib]
In short: as §1

doramapimod = compound: Cc1ccc(-n2nc(C(C)(C)C)cc2NC(=O)Nc2ccc(OCCN3CCOCC3)c3ccccc23)cc1 [doramapimod]
In short: as §1

bafetinib = compound: Cc1ccc(NC(=O)c2ccc(CN3CC[C@H](N(C)C)C3)c(C(F)(F)F)c2)cc1Nc1nccc(-c2cncnc2)n1 [bafetinib]
In short: as §1

[6] = compound: Cc1cccc(CC(=O)N2CCc3c2ccc(-c2cn(C)c4ncnc(N)c24)c3F)n1
In short: as §1

Measured: log2 fold change

RFC3 (UniProt P40938)
inactive: alvocidib -0.008 | Tubastatin A -0.142 | [1] 0.024 | defactinib 0.036 | [2] -0.014 | encorafenib 0.002 | [3] -0.005 | alisertib 0.007 | [4] 0.029 | gefitinib -0.075 | lapatinib -0.045 | pictilisib -0.009 | crizotinib -0.043 | [5] -0.072 | duvelisib 0.037 | gandotinib -0.039 | tozasertib 0.027 | doramapimod 0.016 | bafetinib -0.051 | [6] 0.1

RARS2 (UniProt Q5T160)
inactive: alvocidib -0.023 | Tubastatin A -0.047 | [1] 0.025 | defactinib 0.041 | [2] -0.02 | encorafenib 0.111 | [3] -0.157 | alisertib -0.017 | [4] 0.012 | gefitinib 0.043 | lapatinib 0.011 | pictilisib 0.009 | crizotinib -0.072 | [5] 0.019 | duvelisib -0.043 | gandotinib -0.188 | tozasertib 0.015 | doramapimod 0 | bafetinib -0.043 | [6] 0.023

RENBP (UniProt P51606)
inactive: alvocidib -0.04 | Tubastatin A 0.097 | [1] 0 | defactinib -0.007 | [2] -0.004 | encorafenib 0.022 | [3] -0.031 | alisertib 0.005 | [4] -0.118 | gefitinib 0.013 | lapatinib 0.007 | pictilisib -0.012 | crizotinib 0.018 | [5] -0.027 | duvelisib -0.046 | gandotinib 0 | tozasertib 0.051 | doramapimod -0.027 | bafetinib -0.023 | [6] 0.028

RFX5 (UniProt P48382)
inactive: alvocidib -0.003 | Tubastatin A -0.009 | [1] 0 | defactinib -0.042 | [2] 0.029 | encorafenib 0.041 | [3] 0.004 | alisertib 0.045 | [4] -0.05 | gefitinib 0.1 | lapatinib 0.034 | pictilisib 0.038 | crizotinib 0 | [5] 0.016 | duvelisib 0.029 | gandotinib -0.046 | tozasertib -0.093 | doramapimod 0.026 | bafetinib -0.016 | [6] 0.055

RB1CC1 (UniProt Q8TDY2)
inactive: alvocidib -0.02 | Tubastatin A -0.006 | [1] 0.031 | defactinib -0.033 | [2] 0.026 | encorafenib -0.012 | [3] -0.031 | alisertib -0.015 | [4] 0.018 | gefitinib -0.001 | lapatinib -0.009 | pictilisib -0.029 | crizotinib -0.048 | [5] -0.031 | duvelisib 0.006 | gandotinib 0.062 | tozasertib -0.007 | doramapimod -0.006 | bafetinib -0.036 | [6] 0.046

RBM26 isoform 2 (UniProt Q5T8P6)
inactive: alvocidib -0.004 | Tubastatin A -0.051 | [1] -0.027 | defactinib -0.021 | [2] -0.017 | encorafenib 0.031 | [3] -0.074 | alisertib -0.006 | [4] -0.017 | gefitinib 0.005 | lapatinib 0.013 | pictilisib -0.004 | crizotinib -0.011 | [5] 0.063 | duvelisib -0.044 | gandotinib -0.135 | tozasertib 0.007 | doramapimod 0.056 | bafetinib -0.038 | [6] -0.035

RBM3 (UniProt P98179)
inactive: alvocidib 0.035 | Tubastatin A -0.036 | [1] 0.118 | defactinib 0.038 | [2] 0.035 | encorafenib 0 | [3] -0.014 | alisertib 0.105 | [4] -0.008 | gefitinib 0.023 | lapatinib -0.104 | pictilisib -0.026 | crizotinib 0.186 | [5] 0.029 | duvelisib 0.081 | gandotinib 0.016 | tozasertib 0.033 | doramapimod 0 | bafetinib -0.026 | [6] -0.113

RAPGEF6 isoform 4 (UniProt Q8TEU7)
inactive: alvocidib -0.056 | Tubastatin A -0.048 | [1] 0.006 | defactinib 0.031 | [2] 0.001 | encorafenib 0.009 | [3] 0.059 | alisertib 0.017 | [4] 0.001 | gefitinib -0.024 | lapatinib 0.027 | pictilisib -0.058 | crizotinib -0.003 | [5] -0.032 | duvelisib 0.019 | gandotinib -0.009 | tozasertib 0.035 | doramapimod 0.021 | bafetinib -0.046 | [6] 0.038

RASA3 (UniProt Q14644)
inactive: alvocidib -0.089 | Tubastatin A -0.246 | [1] 0 | defactinib 0.052 | [2] -0.118 | encorafenib -0.005 | [3] 0.082 | alisertib -0.006 | [4] 0.032 | gefitinib -0.043 | lapatinib 0.08 | pictilisib -0.044 | crizotinib -0.061 | [5] -0.049 | duvelisib 0.103 | gandotinib -0.026 | tozasertib -0.017 | doramapimod -0.005 | bafetinib -0.198 | [6] 0.005

RCN2 isoform 2 (UniProt Q14257)
inactive: alvocidib 0.009 | Tubastatin A -0.055 | [1] 0.021 | defactinib 0 | [2] -0.108 | encorafenib -0.002 | [3] -0.029 | alisertib -0.001 | [4] 0.009 | gefitinib -0.019 | lapatinib 0.002 | pictilisib 0.017 | crizotinib 0.009 | [5] 0.029 | duvelisib 0.031 | gandotinib 0.003 | tozasertib 0.047 | doramapimod -0.046 | bafetinib -0.032 | [6] -0.025

RECQL5 (UniProt O94762)
inactive: alvocidib 0.057 | Tubastatin A -0.053 | [1] -0.071 | defactinib 0.068 | [2] 0.074 | encorafenib 0.225 | [3] 0.016 | alisertib -0.003 | [4] 0.09 | gefitinib 0.03 | lapatinib 0.277 | pictilisib 0.06 | crizotinib 0.049 | [5] 0.084 | duvelisib 0.029 | gandotinib -0.15 | tozasertib 0.031 | doramapimod -0.008 | bafetinib -0.062 | [6] -0.09

RBM34 (UniProt P42696)
inactive: alvocidib 0.003 | Tubastatin A -0.007 | [1] -0.009 | defactinib 0.037 | [2] 0.021 | encorafenib 0.05 | [3] 0.03 | alisertib -0.002 | [4] 0.013 | gefitinib -0.028 | lapatinib -0.01 | pictilisib -0.036 | crizotinib -0.07 | [5] -0.021 | duvelisib -0.018 | gandotinib -0.016 | tozasertib -0.019 | doramapimod -0.001 | bafetinib -0.086 | [6] 0.037

Pulled one by one from above (two):
RBM26 isoform 2 (UniProt Q5T8P6)
inactive: alvocidib -0.004 | Tubastatin A -0.051 | [1] -0.027 | defactinib -0.021 | [2] -0.017 | encorafenib 0.031 | [3] -0.074 | alisertib -0.006 | [4] -0.017 | gefitinib 0.005 | lapatinib 0.013 | pictilisib -0.004 | crizotinib -0.011 | [5] 0.063 | duvelisib -0.044 | gandotinib -0.135 | tozasertib 0.007 | doramapimod 0.056 | bafetinib -0.038 | [6] -0.035

RAPGEF6 isoform 4 (UniProt Q8TEU7)
inactive: alvocidib -0.056 | Tubastatin A -0.048 | [1] 0.006 | defactinib 0.031 | [2] 0.001 | encorafenib 0.009 | [3] 0.059 | alisertib 0.017 | [4] 0.001 | gefitinib -0.024 | lapatinib 0.027 | pictilisib -0.058 | crizotinib -0.003 | [5] -0.032 | duvelisib 0.019 | gandotinib -0.009 | tozasertib 0.035 | doramapimod 0.021 | bafetinib -0.046 | [6] 0.038

Next part:

RBBP4 (UniProt Q09028)
inactive: alvocidib -0.023 | Tubastatin A 0.055 | [1] 0.013 | defactinib -0.05 | [2] 0.05 | encorafenib -0.008 | [3] -0.029 | alisertib -0.009 | [4] 0 | gefitinib -0.084 | lapatinib 0.007 | pictilisib -0.013 | crizotinib -0.003 | [5] -0.102 | duvelisib 0.006 | gandotinib 0.078 | tozasertib 0.029 | doramapimod 0.032 | bafetinib 0.036 | [6] 0.023

RBM33 (UniProt Q96EV2)
inactive: alvocidib 0.047 | Tubastatin A -0.05 | [1] -0.015 | defactinib 0.004 | [2] -0.042 | encorafenib 0.021 | [3] -0.043 | alisertib 0.011 | [4] -0.021 | gefitinib 0.012 | lapatinib 0.016 | pictilisib -0.04 | crizotinib -0.019 | [5] 0.128 | duvelisib -0.039 | gandotinib -0.058 | tozasertib 0.062 | doramapimod 0.058 | bafetinib -0.041 | [6] -0.028

REV1 (UniProt Q9UBZ9)
inactive: alvocidib 0.122 | Tubastatin A -0.061 | [1] -0.021 | defactinib -0.001 | [2] -0.147 | encorafenib -0.094 | [3] -0.044 | alisertib 0.05 | [4] -0.061 | gefitinib -0.01 | lapatinib -0.05 | pictilisib 0.001 | crizotinib 0.108 | [5] 0.05 | duvelisib -0.043 | gandotinib -0.133 | tozasertib -0.023 | doramapimod 0.003 | bafetinib 0.04 | [6] -0.165

RCHY1 (UniProt Q96PM5)
inactive: alvocidib -0.016 | Tubastatin A 0.038 | [1] 0.044 | defactinib 0.043 | [2] 0.121 | encorafenib -0.081 | [3] -0.019 | alisertib -0.055 | [4] 0.006 | gefitinib -0.203 | lapatinib 0.014 | pictilisib -0.004 | crizotinib -0.005 | [5] 0.058 | duvelisib 0.03 | gandotinib -0.001 | tozasertib 0.063 | doramapimod 0.045 | bafetinib 0.012 | [6] -0.058
